# About 13,000 (3.2%) of roughly 400,000 compounds were called active. The shares of active, inactive and inconclusive entries below differ from those in the screen. The call rests on the fitted dose curve; in most records, active means well fitted cell-killing curve with a large enough effect; inconclusive means small, poorly fitted or top-dose-only effect, or effect the other way; inactive means flat fitted curve, though single readings scatter. Potencies beside an inconclusive call are fits to weak or partial responses and may not hold up.
# Experiment: qHTS assay for MDR1-selective chemotherapeutics: Primary screen using the drug-selected MDR subline cells KB-V1; further: nearly all actives have a fitted effect of over 60% in size
# Conditions: KB-V1 MDR cells viability, CellTiter-Glo, 72 h; activity change, negative = cytotoxicity: at 46.1 µM (top of the series)
# Summary of the method: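 Luminescent ATP read-out (CellTiter-Glo, 10 min) measures survival of drug-selected KB-V1 MDR cells after 72 h, 37 degrees C compound exposure. Medium: phenol-red-free DMEM, 10% FBS. Values from fitted concentration-response curves.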
# On the % scale 0 is the no-effect control and ±100 the full control effect; potency means the concentration at half of the fitted maximal effect.
SMILES,Potency,"activity change, negative = cytotoxicity"
O=C(O)c1ccccc1C(=O)c1ccc2c(c1)N(Cc1ccc(Cl)c(Cl)c1)C(=O)CO2,"inconclusive: 11.6 µM [cytotoxic, partial curve]",–
CCCCNC(=O)c1cn(-c2ccc(OCC)cc2)c(=O)c2cc(OC)c(OC)cc12,–,inactive: 0%
Cc1ccnc(NC(=O)CCC(=O)N(CC(=O)NCc2ccc(F)cc2)Cc2ccccc2)c1,"inconclusive: 29.1 µM [cytotoxic, single point]",–
Cc1ccc(-c2cc(C(=O)N3CCCc4ccccc43)c3ccccc3n2)cc1,active: 23.1 µM,–
O=C(Nc1ccccc1-c1nnc(SCc2ccccc2)o1)c1ccccc1,active: 14.6 µM,–
CCN(CC)C(=O)C1=C(C)N(CCCOC)C(=O)C(CC(=O)NCc2ccco2)C1 (stereo unspecified),"inconclusive: 25.9 µM [cytotoxic, single point]",–
O=C(COC(=O)CCSc1ccc(Cl)cc1)NCc1ccc(Cl)cc1,"inconclusive: 8.2 µM [rising, partial curve]",–
Cc1cccn2c(=O)c3cc(C(=O)NCCN4CCOCC4)c(=N)n(CCN4CCOCC4)c3nc12,"inconclusive: 8.2 µM [rising, partial curve, poor fit]",–
Cc1nn2c(CN(C(=O)c3ccco3)c3ccccc3)nnc2c2ccccc12,"inconclusive: 10.3 µM [cytotoxic, partial curve, poor fit]",–
CCCc1cc(=O)n2c(C(=O)Nc3ccc(OCC)cc3)c(C(=O)Nc3ccc(C)cc3)sc2n1,"inconclusive: 29.1 µM [cytotoxic, single point]",–
COCC(C)NCc1cc(Br)ccc1OC (stereo unspecified),"inconclusive: 11.6 µM [rising, partial curve]",–
Cc1ccsc1C(=O)N1CCN(c2ccccn2)CC1,–,inactive: 0.868%
COc1cccc(C2c3c(oc4cc(C)cc(C)c4c3=O)C(=O)N2CCc2ccc(OC)c(OC)c2)c1 (stereo unspecified),–,inactive: -14.1%
Cc1ccc(NC(=O)/C(C#N)=C/c2cccs2)c(C)c1,"inconclusive: 6.51 µM [rising, partial curve]",–
COc1ccc(CNc2nc(-c3ccccc3)nn2S(=O)(=O)c2ccccc2)cc1,–,inactive: -16.9%
CC1(C)CC(=O)c2c(O)cc(OCc3ccc(Br)cc3)cc2O1,"inconclusive: 18.4 µM [cytotoxic, single point]",–
COc1ccccc1CNC(=O)C1CCC(=O)N(CCCN2CCCC2=O)C1 (stereo unspecified),"inconclusive: 10.3 µM [rising, partial curve]",–
CC(=O)c1c(C)[nH]c(C(=O)OCC(=O)NCCCc2ccccc2)c1C,"inconclusive: 25.9 µM [cytotoxic, partial curve, poor fit]",–
O=C1NC[C@@H](CCCCN2C[C@H](Cc3ccc(O)cc3)N(CCc3ccccc3)C(=O)C2=O)N(CC2CCCCC2)C1=O,–,inactive: 1.55%
COC(=O)c1c(NC(=O)c2cccnc2)sc(C)c1C,"inconclusive: 20.6 µM [cytotoxic, partial curve, poor fit]",–
COC(=O)c1sccc1-c1ccc(C(=O)Nc2cccc(Cl)c2)o1,active: 16.4 µM,–
C(=Nc1ccc(/C=C/c2ccnc3ccccc23)cc1)c1cccs1,–,inactive: 7.37%
C/C(=N/Nc1ccc(F)cc1)c1ccc(Cl)s1,–,inactive: -2.68%

# A different layout for some results above:
SMILES	Potency	activity change, negative = cytotoxicity
Cc1ccnc(NC(=O)CCC(=O)N(CC(=O)NCc2ccc(F)cc2)Cc2ccccc2)c1	inconclusive: 29.1 µM [cytotoxic, single point]	–
Cc1ccc(-c2cc(C(=O)N3CCCc4ccccc43)c3ccccc3n2)cc1	active: 23.1 µM	–
O=C(Nc1ccccc1-c1nnc(SCc2ccccc2)o1)c1ccccc1	active: 14.6 µM	–

# Further records follow:

SMILES,Potency,"activity change, negative = cytotoxicity"
O=c1cc(CSc2ncn[nH]2)[nH]c2ccc(F)cc12,–,inactive: 3.56%
CCCc1nc2ccc(NC(=O)c3ccco3)cc2c(=O)n1Cc1ccccc1Cl,"inconclusive: 23.1 µM [cytotoxic, single point]",–
CCCCOc1ccc(C(=O)NNC(=S)NC(=O)CC)cc1,"inconclusive: 2.31 µM [cytotoxic, partial curve, poor fit]",–
O=C(Nc1ccccc1C(=O)NCc1cccnc1)c1ccc(Cl)cc1Cl,"inconclusive: 3.26 µM [cytotoxic, full curve, poor fit]",–
CCc1ccc2[nH]c(=O)c(CN(Cc3ccccc3OC)Cc3nnnn3Cc3ccco3)cc2c1,"inconclusive: 20.6 µM [cytotoxic, single point]",–
Cc1csc2sc(-c3ccnc(SCC(=O)NCc4ccccc4)n3)c(C)c12,active: 5.8 µM,–
Cc1cccc(C(=O)Nc2c(C(=O)N3CCN(c4ccc(F)cc4)CC3)oc3ccccc23)c1,"inconclusive: 25.9 µM [cytotoxic, single point]",–
CCN(CC)c1cc(C)c2cc(NC(=O)c3cc(OC)cc(OC)c3)ccc2n1,–,inactive: -1.95%
Cc1nc(NC(=O)c2ccncc2)sc1C(=O)N(C)C,"inconclusive: 14.6 µM [rising, partial curve]",–
COc1ccc2oc(=O)c(/C(N)=N/NC(=O)c3ccncc3)cc2c1,"inconclusive: 16.4 µM [rising, single point]",–
N#C/C(=C\c1cccn1-c1ccccc1)C(=O)NC1CCCCC1,active: 4.61 µM,–
O=C1C(=O)N(CCCN2CCOCC2)C(c2ccc([N+](=O)[O-])cc2)/C1=C(/O)c1ccc2c(c1)OCO2 (stereo unspecified),–,inconclusive: 0%
COc1ccc(CC(=O)Nc2ccc(-c3nnc(-c4ccccc4)o3)cc2)cc1OC,"inconclusive: 1.3 µM [cytotoxic, full curve]",–
O=C(NCc1cccnc1)C1C2C=CC(C2)C1C(=O)Nc1cccc(C(F)(F)F)c1 (stereo unspecified),–,inactive: 25.4%
CCN(CC)C(=O)C1CCCN(C/C=C/c2ccccc2)C1 (stereo unspecified),–,inactive: 3.51%
C=CCc1cccc(CNc2ccc(S(=O)(=O)Nc3nccnc3OC)cc2)c1O,"inconclusive: 18.4 µM [rising, partial curve, poor fit]",–
COCCNC(=O)C1CCCN(Cc2ccccc2-c2ccccc2)CC1 (stereo unspecified),–,inactive: 6.3%
OC(c1ccccc1)c1nc(-c2cccc3cccnc23)cs1 (stereo unspecified),"inconclusive: 23.1 µM [cytotoxic, single point]",–
CCCN(CCC)c1nc(Cl)nc(NCc2ccco2)n1,"inconclusive: 18.4 µM [cytotoxic, single point]",–
O=C(/C=C/c1ccc(Cl)cc1Cl)Nc1ccc(CN2CCOCC2)cc1,–,inactive: -10.2%
Cc1ccc2[nH]c(O)c(N=Nc3nc4ccccc4s3)c2c1,active: 13 µM,–
CCOc1cccc(C(=O)Nc2nc(-c3ccc(S(=O)(=O)N4CCOCC4)cc3)cs2)c1,–,inactive: -4.95%
CCOc1ccc(NC(=S)Nc2ccccc2C2(C)CC2)cc1,"inconclusive: 25.9 µM [cytotoxic, single point]",–
